No constants are given. Whether binding was seen depends on the method and setting. For part of these data: A result given as binding can be weak or reduced; the word gives no strength.

Results on two molecules are retold here after paper PMC9964061.

What all share (assay): two-hybrid; reciprocal pairwise assays; full-length constructs in pDest-GBKT7 (strain Y2HGold) and pDest-GADT7 (strain Y187)
Assay [1] deals with T1, AtHsp90.5 (At2g04030), chloroplast-localized member of the HSP90 family (Arabidopsis thaliana) (UniProt Q9SIF2).
T1 sequence: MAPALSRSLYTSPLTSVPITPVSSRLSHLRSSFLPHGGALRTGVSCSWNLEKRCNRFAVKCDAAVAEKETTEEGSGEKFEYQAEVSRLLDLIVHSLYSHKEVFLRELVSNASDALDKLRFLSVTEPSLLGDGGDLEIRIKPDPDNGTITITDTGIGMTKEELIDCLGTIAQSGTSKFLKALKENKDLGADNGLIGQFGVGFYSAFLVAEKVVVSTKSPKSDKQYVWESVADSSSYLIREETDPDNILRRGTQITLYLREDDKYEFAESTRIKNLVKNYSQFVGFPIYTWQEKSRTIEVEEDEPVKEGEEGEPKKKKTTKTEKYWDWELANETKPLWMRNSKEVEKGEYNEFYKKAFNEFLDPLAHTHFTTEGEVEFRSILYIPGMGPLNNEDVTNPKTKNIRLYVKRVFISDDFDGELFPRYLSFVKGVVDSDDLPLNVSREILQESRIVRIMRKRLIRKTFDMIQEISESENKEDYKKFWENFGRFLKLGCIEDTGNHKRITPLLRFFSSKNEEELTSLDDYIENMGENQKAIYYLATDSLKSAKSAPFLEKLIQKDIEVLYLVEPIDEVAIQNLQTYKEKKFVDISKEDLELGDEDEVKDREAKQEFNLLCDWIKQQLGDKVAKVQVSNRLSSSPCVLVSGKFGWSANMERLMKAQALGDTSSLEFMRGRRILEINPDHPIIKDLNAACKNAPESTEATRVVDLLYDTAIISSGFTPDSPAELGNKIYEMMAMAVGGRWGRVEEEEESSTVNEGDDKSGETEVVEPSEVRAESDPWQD

The target of assay [2] is At5g17710 (CHLOROPLAST GRPE 1), full-length coding sequence (Arabidopsis thaliana).
Assay [3] has as its target At1g36390 (CHLOROPLAST GRPE 2), full-length coding sequence (Arabidopsis thaliana).

Regarding “At1g36390 (CHLOROPLAST GRPE 2), full-length coding sequence (Arabidopsis thaliana)”, the binding entry in assay [1] is listed as “no binding”.

B1: AtHsp90.5 (At2g04030), chloroplast-localized member of the HSP90 family (protein, UniProt Q9SIF2 1-780)
chain: T1 sequence
As for B1, the figures for the binding result in assay [2] and in assay [3] were “binds” and “no binding”, respectively.
